Source: article PMC11706058
No constants are given. Whether binding was seen depends on the method and setting. Binding seen in cells or lysates may run through a third protein. Some entries that bind do so weakly or less than the wild type. Where a sequence is shown, tags or fusion partners need not be part of it.

Sequences of proteins named here, by UniProt entry; tags and fusion partners are left off. A change or cut given only in a name is not applied to a line headed by its entry.
UniProt P46531: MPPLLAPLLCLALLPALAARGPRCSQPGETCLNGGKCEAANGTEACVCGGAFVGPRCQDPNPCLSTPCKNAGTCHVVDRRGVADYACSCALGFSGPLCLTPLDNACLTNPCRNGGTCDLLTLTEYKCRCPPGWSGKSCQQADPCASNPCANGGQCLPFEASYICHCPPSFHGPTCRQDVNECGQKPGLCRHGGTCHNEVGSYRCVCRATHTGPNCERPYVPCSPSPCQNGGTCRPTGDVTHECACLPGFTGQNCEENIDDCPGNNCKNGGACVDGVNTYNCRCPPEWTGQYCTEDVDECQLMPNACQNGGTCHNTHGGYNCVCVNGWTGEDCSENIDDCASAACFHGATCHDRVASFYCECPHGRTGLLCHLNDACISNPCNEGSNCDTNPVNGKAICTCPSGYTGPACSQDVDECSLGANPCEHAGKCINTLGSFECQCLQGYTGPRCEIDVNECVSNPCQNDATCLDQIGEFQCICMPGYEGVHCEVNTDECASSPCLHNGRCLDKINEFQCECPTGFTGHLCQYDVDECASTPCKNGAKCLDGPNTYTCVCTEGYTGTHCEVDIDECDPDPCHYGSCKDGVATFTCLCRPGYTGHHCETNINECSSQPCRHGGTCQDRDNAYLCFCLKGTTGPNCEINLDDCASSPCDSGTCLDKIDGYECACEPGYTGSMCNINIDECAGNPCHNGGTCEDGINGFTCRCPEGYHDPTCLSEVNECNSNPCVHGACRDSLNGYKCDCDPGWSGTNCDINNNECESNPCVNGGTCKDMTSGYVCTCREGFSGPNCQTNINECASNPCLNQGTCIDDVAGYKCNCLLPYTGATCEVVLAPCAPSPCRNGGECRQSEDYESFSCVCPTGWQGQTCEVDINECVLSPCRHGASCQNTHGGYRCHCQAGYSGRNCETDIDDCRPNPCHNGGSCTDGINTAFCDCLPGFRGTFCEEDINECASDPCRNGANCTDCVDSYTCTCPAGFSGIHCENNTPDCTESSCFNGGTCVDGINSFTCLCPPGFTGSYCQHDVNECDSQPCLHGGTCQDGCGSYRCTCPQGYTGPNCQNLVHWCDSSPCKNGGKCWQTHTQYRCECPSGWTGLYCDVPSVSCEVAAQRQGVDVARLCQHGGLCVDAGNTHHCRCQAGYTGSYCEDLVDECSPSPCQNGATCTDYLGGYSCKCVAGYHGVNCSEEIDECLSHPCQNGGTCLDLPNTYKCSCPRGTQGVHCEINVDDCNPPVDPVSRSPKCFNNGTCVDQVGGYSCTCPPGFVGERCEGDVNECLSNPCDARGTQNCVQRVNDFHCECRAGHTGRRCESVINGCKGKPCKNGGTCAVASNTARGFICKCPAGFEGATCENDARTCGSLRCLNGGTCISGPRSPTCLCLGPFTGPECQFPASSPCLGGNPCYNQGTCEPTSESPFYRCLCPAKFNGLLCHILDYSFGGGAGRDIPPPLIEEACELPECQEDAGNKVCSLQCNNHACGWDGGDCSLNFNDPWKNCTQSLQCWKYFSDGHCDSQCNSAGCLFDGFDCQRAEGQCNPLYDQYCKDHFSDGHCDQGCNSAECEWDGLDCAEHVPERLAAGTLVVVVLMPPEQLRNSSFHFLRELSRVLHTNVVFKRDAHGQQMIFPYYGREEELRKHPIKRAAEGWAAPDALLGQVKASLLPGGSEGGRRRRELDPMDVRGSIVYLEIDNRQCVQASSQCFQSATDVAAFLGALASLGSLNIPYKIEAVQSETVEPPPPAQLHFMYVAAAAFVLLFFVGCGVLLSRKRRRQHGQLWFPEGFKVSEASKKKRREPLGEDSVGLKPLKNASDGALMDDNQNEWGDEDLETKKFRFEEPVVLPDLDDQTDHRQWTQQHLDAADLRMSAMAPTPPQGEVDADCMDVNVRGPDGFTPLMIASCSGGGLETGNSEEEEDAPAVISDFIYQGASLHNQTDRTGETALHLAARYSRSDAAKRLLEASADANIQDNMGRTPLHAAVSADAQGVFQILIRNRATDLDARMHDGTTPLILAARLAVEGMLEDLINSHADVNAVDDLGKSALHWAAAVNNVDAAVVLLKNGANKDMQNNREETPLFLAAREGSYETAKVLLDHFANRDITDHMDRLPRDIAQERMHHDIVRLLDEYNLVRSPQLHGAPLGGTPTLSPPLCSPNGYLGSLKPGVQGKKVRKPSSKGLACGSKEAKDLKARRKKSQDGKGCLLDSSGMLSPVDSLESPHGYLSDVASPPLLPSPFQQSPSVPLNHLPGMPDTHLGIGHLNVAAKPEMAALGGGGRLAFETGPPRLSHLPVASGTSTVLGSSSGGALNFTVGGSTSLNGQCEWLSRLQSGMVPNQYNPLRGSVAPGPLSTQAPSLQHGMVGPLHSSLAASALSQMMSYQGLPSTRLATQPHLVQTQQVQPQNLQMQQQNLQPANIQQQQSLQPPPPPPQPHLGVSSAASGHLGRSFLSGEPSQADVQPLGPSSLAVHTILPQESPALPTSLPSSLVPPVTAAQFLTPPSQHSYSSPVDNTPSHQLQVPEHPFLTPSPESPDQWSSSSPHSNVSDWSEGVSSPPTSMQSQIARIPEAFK

Target: T1, Periostin (POSTN), full length, 3xFLAG-tagged (pEB-POSTN-3×flag-Puro) (human) (UniProt Q15063)
T1 sequence: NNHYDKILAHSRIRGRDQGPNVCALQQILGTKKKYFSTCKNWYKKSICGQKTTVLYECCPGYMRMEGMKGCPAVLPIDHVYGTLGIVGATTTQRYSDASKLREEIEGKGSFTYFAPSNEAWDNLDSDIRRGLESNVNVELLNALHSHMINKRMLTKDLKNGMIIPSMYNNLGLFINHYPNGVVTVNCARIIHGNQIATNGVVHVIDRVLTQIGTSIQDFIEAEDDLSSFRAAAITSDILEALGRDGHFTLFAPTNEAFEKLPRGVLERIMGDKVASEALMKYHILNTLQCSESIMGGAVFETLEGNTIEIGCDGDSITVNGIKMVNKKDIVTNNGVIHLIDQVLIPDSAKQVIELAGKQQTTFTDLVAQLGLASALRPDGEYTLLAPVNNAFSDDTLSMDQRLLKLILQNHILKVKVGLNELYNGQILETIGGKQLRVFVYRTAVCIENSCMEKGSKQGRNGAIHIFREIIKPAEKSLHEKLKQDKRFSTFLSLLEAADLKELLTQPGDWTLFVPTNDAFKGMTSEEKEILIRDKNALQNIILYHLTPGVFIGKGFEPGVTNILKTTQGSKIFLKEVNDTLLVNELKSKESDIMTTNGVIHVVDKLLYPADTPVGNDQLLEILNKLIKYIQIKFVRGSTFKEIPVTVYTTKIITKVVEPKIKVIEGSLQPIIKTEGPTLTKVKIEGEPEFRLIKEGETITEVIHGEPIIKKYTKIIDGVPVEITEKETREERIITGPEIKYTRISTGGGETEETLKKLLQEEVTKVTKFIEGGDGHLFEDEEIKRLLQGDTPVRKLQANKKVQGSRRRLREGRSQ
Assay: co-IP; 293T cells expressing FLAG-tagged POSTN (full length or truncations) with full-length NOTCH1 or NOTCH1-NECD-HA; FLAG or HA pulled down, immunoblot; no co-IP protocol in the methods

Substance | binding
NOTCH1, full length (from UniProt P46531 19-2555) (receptor) | binds
NOTCH1-NECD (1-1426aa)-HA (pLV3-CMV-NOTCH1-NECD (1-1426aa)-HA-Puro) (from UniProt P46531 19-1426) (domain or fragment) | binds
